Reference: patent US20040132970A1, “Dermaseptin-derived peptides and their use in delivery systems” (priority 2002, published 2004)
At least one peptide structure holds a part that was inferred or is arguable (an end, a ring closure or a residue). Ends that are not written are not given here.

Key:
permeabilized HeLa cells = experiment: Nuclear uptake in digitonin-permeabilized cells, fluorescence microscopy; format: cell-based
Description: FIGS. 2a-d: Nuclear import of PV-S413 in permeabilized HeLa cells: fluorescence microscopy observations. All experimental conditions were as described in Experimental Procedures and in legend to Table 3. Digitonin permeabilized HeLa cells were incubated in the presence of reticulocyte extract at 30° C. for 1 hour with 1 μM of the following:
HeLa cells were cultivated on 10 mm cover slips to sub confluent density and then permeabilized with digitonin as described previously [Friedler, A. et al. (1998) Biochemistry 37, 5616-5622]. The cells were incubated with the peptides and nuclear import was followed by fluorescence microscopy as described [Friedler, A. et al. (1998) id ibid.].
Experimental conditions of nuclear import in digitonin-permeabilized cells (complete system) were as described. PV-S413 was used at 1 mM and all incubations were performed at 37° C. in the presence of reticulocyte lysate, unless otherwise indicated. Additions: GTPγS (20 mM) and the following unlabeled peptides SV40 T-Ag NLS, S413 and PV-S413 at a ratio of 1:100 (mol/mol).
Unlabeled peptides RR-S413, SV40 T-Ag-NLS, Rev and Tat ARM were added at a peptide ratio of 1:100 (mole/mole).

HeLa cells = experiment: Penetration of Lissamine Rhodamine-labeled synthetic peptides into intact cultured cells, fluorescence microscopy; format: cell-based
Description: HeLa cells (3×10^4 per well) were cultured on eight-well Lab-Teck cover slips (Nunc Inc.) or on 10-mm cover slips to sub confluent density. Following the removal of the culture medium, the cells were washed three times with PBS and then exposed to different concentrations of the Lissamine Rhodamine-labeled peptides at 37° C. or at 4° C. At the end of the incubation period the cells were washed three times in PBS and fixed in 4% (v/v) formaldehyde dissolved in PBS. Fixed cells were examined by fluorescence microscopy (Zeiss Germany, a 40× objective; Apoplan) or by confocal microscopy using an MRC 1024 confocal imaging system (Bio-Rad). The microscope (Axiovert 135M; Zeiss Germany, a 63× objective; Apoplan; NA 1.4) was equipped with an argon ion laser for Rhodamine excitation at 514 nm (emission 580).
Following fixation, the various samples were examined by fluorescence microscopy.
Synthetic peptides bearing Tat and Rev ARM sequences were synthesized and fluorescently labeled as described. […]

Substance: ALWKTLLKKVLKAPKKKRKV-NH2 [Peptide S413-PV]
- ATP dependence of nuclear import in permeabilized HeLa cells (permeabilized HeLa cells): ATP-dependent
- nuclear import in permeabilized HeLa cells at 4° C. (permeabilized HeLa cells; 4° C.): did not occur
- effect of GTPγS, WGA and excess of free unlabeled SV40 T-Ag-NLS peptide on nuclear import (permeabilized HeLa cells; permeabilized HeLa cells): inhibited
- intracellular localization in intact HeLa cells at 4° C. (HeLa cells; 4° C.): retained in the cytoplasm
- cell penetration and intracellular localization in intact HeLa cells (FIG. 1) (HeLa cells; 37° C., 5 μM, 30 minutes): cell penetration and accumulation within the cells' nuclei
